## Library screen at single concentrations

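Phenotypic screen: M. tuberculosis growth, glucose 7H9 medium, 3 days; the read-out is not stated. Tested at 500 µM. Higher reads as more growth inhibition (inferred: compounds with an IC50 in retests scored well above the rest). About 18,000 compounds were tested under these conditions; 7.9% (about 1,400) showed 50% or more at least once.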

Each number is a percent effect as filed. How 0% and 100% were set is not recorded. Most values in the screen are low, and negative values occur. The compounds are a random part of those screened.

| # | Compound | Percent Effect |
|---|---|---|
| 1 | `Cc1cc(N)nc(SCc2cc(C)on2)n1` | 14.59 |
| 2 | `CNC(=O)C1CCCCN1Cc1cncn1C1CC1` (stereo not shown) | 0.9834 |
| 3 | `CN(C)S(=O)(=O)N(CCO)Cc1ccc(Cl)c(Cl)c1` | 65.65 |
| 4 | `COc1ccc(NC(=O)c2cnccn2)cc1F` | 23.26 |
| 5 | `c1cc2c(cn1)NCCCN2` | 11.61 |
| 6 | `CC(CNC(=O)N[C@@H](C)C(=O)N(C)C)Cc1cccs1` (stereo partly shown) | 79.91 |
| 7 | `CC(=O)Nc1cc(Br)cnc1NC(C)=O` | 5.191 |
| 8 | `O=C1CN(c2ncnc3c2cnn3CCO)CCN1` | -1.717 |
| 9 | `Cc1nc(N)ncc1C(=O)NC(C)c1cn(C)nc1C` (stereo not shown) | 1.051 |
| 10 | `O=S1(=O)CC(C2CNC2)C1` | 9.143 |
| 11 | `NC1CC(=O)N(c2ccccc2F)C1` (stereo not shown) | 0.8506 |
| 12 | `COCCC(C)(C)CN` | 0.3865 |
| 13 | `CC1CCN(Cc2nnnn2C2CC2)CC1` | 35.41 |
| 14 | `Cc1cc(C(=O)Nc2ccc(OCC(N)=O)cc2)on1` | -5.857 |
| 15 | `NC1CCN(C(=O)c2cnccn2)CC1` | 0.2208 |
| 16 | `CCN1C(=O)C[C@H](CN)[C@H]1c1ccncc1` | 0.5693 |
| 17 | `CCN(CC1CCCO1)C(=O)NCC(F)F` (stereo not shown) | 0.1817 |
| 18 | `O=C(CSc1cnn[nH]1)N1CCc2sccc2C1` | 25.81 |
| 19 | `CC(O)(CC#N)c1ccccc1` (stereo not shown) | 11.51 |
| 20 | `CCCS(=O)(=O)NCc1cc[nH]n1` | 2.111 |
| 21 | `CC(=O)N1CCc2[nH]c3ccccc3c2C1` | 12.6 |
| 22 | `CN(CCO)C[C@@H]1CN(C(=O)CC2CCC2)C[C@@H]1CO` | 7.167 |
| 23 | `CNC(=O)COC(=O)c1ccc(OC(F)(F)F)cc1` | 3.588 |
| 24 | `CNC(=O)c1cccc(CNC(=O)Nc2nccs2)c1` | 44.83 |
| 25 | `N[C@@H]1CCO[C@H]1c1cncc(Br)c1` | 11.95 |
| 26 | `CC(C)NC(=O)c1cc(S(=O)(=O)N2CCOCC2)cs1` | 2.373 |
| 27 | `CSc1ccc(OCCn2cc(Cl)c(=O)[nH]c2=O)cc1` | 2.862 |
| 28 | `COC(C)(C)CNc1ccc(OC(F)F)cn1` | 31.47 |
| 29 | `CC1(C#N)CCN(Cc2ccc(OCCO)cc2)CC1` | 2.598 |
| 30 | `C[C@H](N)c1ncccc1F` | 1.847 |
| 31 | `Cc1cnccc1NCCNC(=O)c1cccc(N)n1` | 13.8 |
| 32 | `O=C1CC(C2CCNCC2)CN1` (stereo not shown) | 7.363 |
| 33 | `CN(C(=O)Cn1ccccc1=O)C1CCS(=O)(=O)C1` (stereo not shown) | -3.441 |
| 34 | `Cc1noc(C)c1CC(=O)NCC1CCOC1` (stereo not shown) | 11.38 |
| 35 | `O=S(=O)(c1cccc2nsnc12)N1CCNCC1` | -17.78 |
| 36 | `O=C(NCCSCCCO)Nc1ccccn1` | 23.37 |
| 37 | `NCc1nncn1-c1ccccc1` | -2.031 |
| 38 | `COCCN(Cc1ccco1)S(=O)(=O)CCOC` | 12.21 |
| 39 | `Cc1ccc(S(=O)(=O)NCC(C)(C)N)c2cccnc12` | 21.4 |
| 40 | `COc1cc(Cl)cc(CN(C)[C@H]2COC[C@@H]2O)c1OC` | 23.14 |
| 41 | `N[C@@H]1CCN(Cc2ccc(F)c(C(F)(F)F)c2)C[C@H]1O` | 48.94 |
| 42 | `CS(=O)(=O)Cc1cccc(CN)c1` | 4.366 |
| 43 | `CS(=O)(=O)N1CCCCC1C(=O)N1CCOCC1` (stereo not shown) | -8.964 |
| 44 | `CCOC(=O)C(CC)(CC)CO` | 3.745 |
| 45 | `CC1CN(C(=O)c2cnsn2)c2cccc(Cl)c2O1` (stereo not shown) | 54.33 |
| 46 | `O=C(COCC(F)(F)F)NCc1ccccn1` | 41.3 |
| 47 | `CC(C1CCN(Cc2ncc[nH]2)CC1)N1CCOCC1` (stereo not shown) | -4.285 |
| 48 | `CCC(CO)NC(=O)C1(Cc2ccccc2)CC1` (stereo not shown) | 13.15 |
| 49 | `Cc1ccc(OCC(C)N)cc1` (stereo not shown) | -6.401 |
| 50 | `CNC(=O)c1ccc(NC(=O)N(C)CCOC)cc1` | 2.874 |
| 51 | `CCCN(Cc1cc(OC)ccn1)C1CCS(=O)(=O)C1` (stereo not shown) | 3.254 |
| 52 | `CC1=NN(c2ccc(C(=O)n3cnnc3N)cc2)CC1` | 16.37 |
| 53 | `CNC(=O)C1CCN(CC(O)c2ccccc2)CC1` (stereo not shown) | 17.13 |
| 54 | `CCNC(=O)CCSc1nnc(-c2ccc(O)cc2)o1` | 45.24 |
| 55 | `O=C(c1ccccc1Cl)N1CCC(n2cnnc2)CC1` | -1.655 |

Repeated from the top, 6 entries:

Result for Cc1cc(N)nc(SCc2cc(C)on2)n1 was 14.59%.
Result for CNC(=O)C1CCCCN1Cc1cncn1C1CC1 (stereo not shown) was 0.9834%.
Result for CN(C)S(=O)(=O)N(CCO)Cc1ccc(Cl)c(Cl)c1 was 65.65%.
Result for COc1ccc(NC(=O)c2cnccn2)cc1F was 23.26%.
Result for c1cc2c(cn1)NCCCN2 was 11.61%.
Result for CC(CNC(=O)N[C@@H](C)C(=O)N(C)C)Cc1cccs1 (stereo partly shown) was 79.91%.

Data taken from ChEMBL document CHEMBL3988442, “University of Dundee, Small-Polar-MMV Screening Library” (2021).